# This is one part of the list.
# B1: Gal 10 (Homo sapiens), Q05315 (protein)
# chain: MSLLPVPYTEAASLSTGSTVTIKGRPLVCFLNEPYLQVDFHTEMKEESDIVFHFQVCFGRRVVMNSREYGAWKQQVESKNMPFQDGQEFELSISVLPDKYQVMVNGQSSYTFDHRIKPEAVKMVQVWRDISLTKFNVSYLKR
# How the values were obtained:
# Experiment in all cases: glycan array binding signal (z-score within array); higher = stronger binding
# Settings in all cases: glycan notation: IUPAC condensed, linker removed
# [1] = target: GlcNAc(b1-3)Gal(b1-4)GlcNAc(b1-2)[GlcNAc(b1-3)Gal(b1-4)GlcNAc(b1-6)]Man(a1-6)[GlcNAc(b1-3)Gal(b1-4)GlcNAc(b1-2)Man(a1-3)]Man(b1-4)GlcNAc(b1-4)GlcNAc
# Method in brief: (§1)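 Glycan array data came from 3228 arrays in the Consortium for Functional Glycomics database, and only arrays with an available protein sequence were kept. Glycan names were put into IUPAC-condensed notation, and columns mapping to the same glycan were averaged. The binding signal is a within-array Z-score, averaged across arrays of one protein sequence run at different concentrations or buffers and across linkers. A negative Z-score can be read as non-binding.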
# [2] = target: GlcNAc(b1-3)Gal(b1-4)GlcNAc(b1-3)Gal(b1-4)GlcNAc
# Method in brief: as §1
# [3] = target: GlcNAc(b1-3)Gal(b1-4)GlcNAc(b1-3)Gal(b1-4)GlcNAc(b1-2)Man(a1-3)[GlcNAc(b1-3)Gal(b1-4)GlcNAc(b1-3)Gal(b1-4)GlcNAc(b1-2)Man(a1-6)]Man(b1-4)GlcNAc(b1-4)GlcNAc
# Method in brief: as §1
# [4] = target: GlcNAc(b1-3)Gal(b1-4)GlcNAc(b1-3)Gal(b1-4)GlcNAc(b1-2)Man(a1-3)[GlcNAc(b1-3)Gal(b1-4)GlcNAc(b1-3)Gal(b1-4)GlcNAc(b1-2)Man(a1-6)]Man(b1-4)GlcNAc(b1-4)[Fuc(a1-6)]GlcNAc
# Method in brief: as §1
# [5] = target: GlcNAc(b1-3)Gal(b1-4)GlcNAc(b1-3)Gal(b1-4)GlcNAc(b1-2)[GlcNAc(b1-3)Gal(b1-4)GlcNAc(b1-3)Gal(b1-4)GlcNAc(b1-6)]Man(a1-6)[GlcNAc(b1-3)Gal(b1-4)GlcNAc(b1-3)Gal(b1-4)GlcNAc(b1-2)Man(a1-3)]Man(b1-4)GlcNAc(b1-4)[Fuc(a1-6)]GlcNAc
# Method in brief: as §1
# [6] = target: GlcNAc(b1-3)Gal(b1-4)GlcNAc(b1-3)Gal(b1-4)GlcNAc(b1-3)Gal(b1-4)GlcNAc(b1-2)Man(a1-3)[GlcNAc(b1-3)Gal(b1-4)GlcNAc(b1-3)Gal(b1-4)GlcNAc(b1-3)Gal(b1-4)GlcNAc(b1-2)Man(a1-6)]Man(b1-4)GlcNAc(b1-4)GlcNAc
# Method in brief: as §1
# [7] = target: GlcNAc(b1-3)Gal(b1-4)GlcNAc(b1-3)Gal(b1-4)GlcNAc(b1-3)Gal(b1-4)GlcNAc(b1-2)Man(a1-3)[GlcNAc(b1-3)Gal(b1-4)GlcNAc(b1-3)Gal(b1-4)GlcNAc(b1-3)Gal(b1-4)GlcNAc(b1-2)Man(a1-6)]Man(b1-4)GlcNAc(b1-4)[Fuc(a1-6)]GlcNAc
# Method in brief: as §1
# [8] = target: GlcNAc(b1-3)Gal(b1-4)GlcNAc(b1-3)Gal(b1-4)GlcNAc(b1-3)Gal(b1-4)GlcNAc(b1-2)[GlcNAc(b1-3)Gal(b1-4)GlcNAc(b1-3)Gal(b1-4)GlcNAc(b1-3)Gal(b1-4)GlcNAc(b1-6)]Man(a1-6)[GlcNAc(b1-3)Gal(b1-4)GlcNAc(b1-3)Gal(b1-4)GlcNAc(b1-3)Gal(b1-4)GlcNAc(b1-2)Man(a1-3)]Man(b1-4)GlcNAc(b1-4)[Fuc(a1-6)]GlcNAc
# Method in brief: as §1
# [9] = target: GlcNAc(b1-3)Gal(b1-4)GlcNAc(b1-3)Gal(b1-4)GlcNAc(b1-3)Gal(b1-4)GlcNAc(b1-3)Gal(b1-4)GlcNAc(b1-2)Man(a1-3)[GlcNAc(b1-3)Gal(b1-4)GlcNAc(b1-3)Gal(b1-4)GlcNAc(b1-3)Gal(b1-4)GlcNAc(b1-3)Gal(b1-4)GlcNAc(b1-2)Man(a1-6)]Man(b1-4)GlcNAc(b1-4)GlcNAc
# Method in brief: as §1
# [10] = target: GlcNAc(b1-3)Gal(b1-4)GlcNAc(b1-3)Gal(b1-4)GlcNAc(b1-3)Gal(b1-4)GlcNAc(b1-3)Gal(b1-4)GlcNAc(b1-2)Man(a1-3)[GlcNAc(b1-3)Gal(b1-4)GlcNAc(b1-3)Gal(b1-4)GlcNAc(b1-3)Gal(b1-4)GlcNAc(b1-3)Gal(b1-4)GlcNAc(b1-2)Man(a1-6)]Man(b1-4)GlcNAc(b1-4)[Fuc(a1-6)]GlcNAc
# Method in brief: as §1
# [11] = target: GlcNAc(b1-3)Gal(b1-4)GlcNAc(b1-3)Gal(b1-4)GlcNAc(b1-3)Gal(b1-4)GlcNAc(b1-3)Gal(b1-4)GlcNAc(b1-2)[GlcNAc(b1-3)Gal(b1-4)GlcNAc(b1-3)Gal(b1-4)GlcNAc(b1-3)Gal(b1-4)GlcNAc(b1-3)Gal(b1-4)GlcNAc(b1-6)]Man(a1-6)[GlcNAc(b1-3)Gal(b1-4)GlcNAc(b1-3)Gal(b1-4)GlcNAc(b1-3)Gal(b1-4)GlcNAc(b1-3)Gal(b1-4)GlcNAc(b1-2)Man(a1-3)]Man(b1-4)GlcNAc(b1-4)[Fuc(a1-6)]GlcNAc
# Method in brief: as §1
# [12] = target: GlcNAc(b1-3)Gal(b1-4)GlcNAc(b1-3)Gal(b1-4)GlcNAc(b1-3)GalNAc
# Method in brief: as §1
# [13] = target: GlcNAc(b1-3)Gal(b1-4)GlcNAc(b1-3)GalNAc
# Method in brief: as §1
# [14] = target: GlcNAc(b1-3)Gal(b1-4)GlcNAc(b1-3)[GlcNAc(b1-3)Gal(b1-4)GlcNAc(b1-3)]GalNAc
# Method in brief: as §1
# [15] = target: GlcNAc(b1-3)Gal(b1-4)GlcNAc(b1-6)[Gal(b1-3)]GalNAc
# Method in brief: as §1
# [16] = target: GlcNAc(b1-3)Gal(b1-4)GlcNAc(b1-6)[GlcNAc(b1-3)Gal(b1-3)]GalNAc
# Method in brief: as §1
# [17] = target: GlcNAc(b1-3)Gal(b1-4)GlcNAc(b1-6)[GlcNAc(b1-3)]Gal(b1-4)GlcNAc
# Method in brief: as §1
# [18] = target: GlcNAc(b1-3)GalNAc
# Method in brief: as §1
# [19] = target: GlcNAc(b1-3)Man
# Method in brief: as §1
# [20] = target: GlcNAc(b1-3)[GlcNAc(b1-4)][GlcNAc(b1-6)]GlcNAc
# Method in brief: as §1
# [21] = target: GlcNAc(b1-3)[GlcNAc(b1-6)]Gal(b1-4)GlcNAc
# Method in brief: as §1
# [22] = target: GlcNAc(b1-3)[GlcNAc(b1-6)]GalNAc
# Method in brief: as §1
# [23] = target: GlcNAc(b1-4)Gal(b1-4)GlcNAc
# Method in brief: as §1
binder,measurement,setting,value
B1,glycan array binding signal (z-score),[1],1.46
same,glycan array binding signal (z-score),[2],-0.579
same,glycan array binding signal (z-score),[3],-0.042
same,glycan array binding signal (z-score),[4],-0.188
same,glycan array binding signal (z-score),[5],-0.466
same,glycan array binding signal (z-score),[6],0.482
same,glycan array binding signal (z-score),[7],1.47
same,glycan array binding signal (z-score),[8],-0.236
same,glycan array binding signal (z-score),[9],-0.375
same,glycan array binding signal (z-score),[10],0.893
same,glycan array binding signal (z-score),[11],0.079
same,glycan array binding signal (z-score),[12],-0.542
same,glycan array binding signal (z-score),[13],-0.558
same,glycan array binding signal (z-score),[14],-0.193
same,glycan array binding signal (z-score),[15],-0.388
same,glycan array binding signal (z-score),[16],-0.409
same,glycan array binding signal (z-score),[17],-0.241
same,glycan array binding signal (z-score),[18],0.05
same,glycan array binding signal (z-score),[19],-0.304
same,glycan array binding signal (z-score),[20],-0.039
same,glycan array binding signal (z-score),[21],-0.309
same,glycan array binding signal (z-score),[22],-0.018
same,glycan array binding signal (z-score),[23],-0.323

# In another format: results already given
binder | measurement | setting | value
B1 | glycan array binding signal (z-score) | [18] | 0.05
same | glycan array binding signal (z-score) | [19] | -0.304

# Source: the supplement of paper PMC8728848
